Laboratory results reported in patent US20250136711A1 (SHANGHAI BIOTROY BIOTECHNIQUE, published 2025).
Results are given in words; binding and its absence hold for the method and conditions named. Some entries that bind do so weakly or less than the wild type. For some assays here: Sequences can lack the tags named with a protein. Values belong to the molecule of their own block, whether it stands above or below them.

Sequences of proteins named here, by UniProt entry; tags and fusion partners are left off. Residues count along the entry.
UniProt Q8NHJ6, residues 22-259: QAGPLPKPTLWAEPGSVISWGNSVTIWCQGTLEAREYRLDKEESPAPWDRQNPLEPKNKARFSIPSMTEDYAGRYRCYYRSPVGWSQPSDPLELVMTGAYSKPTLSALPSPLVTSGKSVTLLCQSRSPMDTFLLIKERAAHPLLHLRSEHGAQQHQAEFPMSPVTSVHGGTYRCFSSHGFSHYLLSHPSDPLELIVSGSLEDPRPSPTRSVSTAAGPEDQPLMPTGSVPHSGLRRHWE
UniProt Q8N423, residues 22-460: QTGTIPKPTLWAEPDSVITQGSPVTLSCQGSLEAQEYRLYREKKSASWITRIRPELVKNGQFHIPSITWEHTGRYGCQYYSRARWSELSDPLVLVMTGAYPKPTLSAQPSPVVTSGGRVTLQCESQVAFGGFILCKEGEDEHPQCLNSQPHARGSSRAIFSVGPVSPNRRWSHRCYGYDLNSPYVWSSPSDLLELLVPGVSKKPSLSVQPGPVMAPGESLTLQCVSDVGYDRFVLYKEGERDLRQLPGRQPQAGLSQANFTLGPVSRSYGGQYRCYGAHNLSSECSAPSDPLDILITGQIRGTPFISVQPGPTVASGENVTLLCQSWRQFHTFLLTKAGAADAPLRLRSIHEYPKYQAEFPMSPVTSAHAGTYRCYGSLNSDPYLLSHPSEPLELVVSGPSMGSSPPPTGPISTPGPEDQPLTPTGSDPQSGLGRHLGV
UniProt P04279, residues 24-462: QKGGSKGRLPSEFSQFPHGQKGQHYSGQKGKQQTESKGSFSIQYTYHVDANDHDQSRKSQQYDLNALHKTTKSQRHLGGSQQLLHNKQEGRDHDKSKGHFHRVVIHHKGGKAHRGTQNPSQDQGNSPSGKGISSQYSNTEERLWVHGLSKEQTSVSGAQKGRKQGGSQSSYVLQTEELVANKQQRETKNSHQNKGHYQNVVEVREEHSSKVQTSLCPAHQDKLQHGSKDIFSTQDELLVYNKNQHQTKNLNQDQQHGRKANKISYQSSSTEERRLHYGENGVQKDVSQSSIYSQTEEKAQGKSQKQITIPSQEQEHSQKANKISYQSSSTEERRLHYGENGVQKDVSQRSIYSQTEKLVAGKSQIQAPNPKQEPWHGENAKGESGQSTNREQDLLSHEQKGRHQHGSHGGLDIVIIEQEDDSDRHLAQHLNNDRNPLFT

Columns and labels:
[1] = biological target: LILRB4 extracellular region protein fragment labeled with an hFc tag (UniProt Q8NHJ6); assay: ELISA; SEMG1 coated, receptor-hFc in solution
[2] = biological target: LILRB2 extracellular region protein fragment labeled with an hFc tag (UniProt Q8N423); assay: ELISA; SEMG1 coated, receptor-hFc in solution
[3] = biological target: T1, CD27 extracellular region protein fragment labeled with an hFc tag (UniProt P26842); assay: ELISA; SEMG1 coated at 10, 3.3, 1.1 ug/mL, CD27-hFc at 2 ug/mL, anti-human Fc HRP
T1 sequence (looked up): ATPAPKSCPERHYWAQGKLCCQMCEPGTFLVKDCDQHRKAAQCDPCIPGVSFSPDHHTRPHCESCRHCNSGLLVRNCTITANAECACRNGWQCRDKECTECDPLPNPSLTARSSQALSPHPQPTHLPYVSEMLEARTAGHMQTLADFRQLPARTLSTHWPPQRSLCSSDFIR

[4] = biological target: LILRB2 extracellular region protein fragment labeled with an hFc tag (UniProt Q8N423); assay: ELISA; SEMG1 expressed in E. coli
[5] = biological target: LILRB2 extracellular region protein fragment labeled with an hFc tag (UniProt Q8N423); assay: ELISA; SEMG1 coated at 10, 3.3, 1.1 ug/mL, LILRB2-hFc at 2 ug/mL, anti-human Fc HRP
[6] = biological target: LILRB4 extracellular region protein fragment labeled with an hFc tag (UniProt Q8NHJ6); assay: ELISA; SEMG1 coated at 10, 3.3, 1.1 ug/mL, LILRB4-hFc at 2 ug/mL, anti-human Fc HRP
[7] = biological target: T1, CD27 extracellular region protein fragment labeled with an hFc tag; assay: ELISA; SEMG2 coated at 10, 3.3, 1.1 ug/mL, CD27-hFc at 2 ug/mL, anti-human Fc HRP
[8] = biological target: LILRB2 extracellular region protein fragment labeled with an hFc tag (UniProt Q8N423); assay: ELISA; SEMG2 coated at 10, 3.3, 1.1 ug/mL, LILRB2-hFc at 2 ug/mL, anti-human Fc HRP
[9] = biological target: LILRB4 extracellular region protein fragment labeled with an hFc tag (UniProt Q8NHJ6); assay: ELISA; SEMG2 coated, receptor-hFc in solution
[10] = biological target: LILRB2 extracellular region protein fragment labeled with an hFc tag (UniProt Q8N423); assay: ELISA; SEMG2 coated, receptor-hFc in solution
[11] = biological target: LILRB4 extracellular region protein fragment labeled with an hFc tag (UniProt Q8NHJ6); assay: ELISA; SEMG2 coated at 10, 3.3, 1.1 ug/mL, LILRB4-hFc at 2 ug/mL, anti-human Fc HRP

binding [1]: binds | binding [2]: binds | binding [3]: binds | binding [4]: binds | binding [5]: binds | binding [6]: binds
Molecule: SEMG1 recombinant protein (semenogelin-1) (from UniProt P04279 24-462) (ligand)

binding [7]: binds | binding [8]: binds | binding [9]: binds | binding [10]: binds | binding [11]: binds
B1: SEMG2 recombinant protein (semenogelin-2) (ligand, human, UniProt Q02383 24-582, looked up)
chain: QKGGSKGQLPSGSSQFPHGQKGQHYFGQKDQQHTKSKGSFSIQHTYHVDINDHDWTRKSQQYDLNALHKATKSKQHLGGSQQLLNYKQEGRDHDKSKGHFHMIVIHHKGGQAHHGTQNPSQDQGNSPSGKGLSSQCSNTEKRLWVHGLSKEQASASGAQKGRTQGGSQSSYVLQTEELVVNKQQRETKNSHQNKGHYQNVVDVREEHSSKLQTSLHPAHQDRLQHGPKDIFTTQDELLVYNKNQHQTKNLSQDQEHGRKAHKISYPSSRTEERQLHHGEKSVQKDVSKGSISIQTEEKIHGKSQNQVTIHSQDQEHGHKENKISYQSSSTEERHLNCGEKGIQKGVSKGSISIQTEEQIHGKSQNQVRIPSQAQEYGHKENKISYQSSSTEERRLNSGEKDVQKGVSKGSISIQTEEKIHGKSQNQVTIPSQDQEHGHKENKMSYQSSSTEERRLNYGGKSTQKDVSQSSISFQIEKLVEGKSQIQTPNPNQDQWSGQNAKGKSGQSADSKQDLLSHEQKGRYKQESSESHNIVITEHEVAQDDHLTQQYNEDRNPIST
